# According to the supplement of paper PMC11438910:
# The list shows a part of the results. The signal is at background level for most entries.
# B1: 4-99.3 (protein)
# chain 1: QVQLQESGPGLVKPSETLSLTCAVSGYSISSGYYWGWIRQPPGKGLEYIGYISGSWGKSYYKPSLKSRVTISKDTSKNQFSLTLSSVTAADTAVYYCARRLEYVGFDVWGPGVLVTVSS
# chain 2: QAAPTQPPSVSGSPGQSVTISCTGTSSDIGYYNAVSWYQQHPGKAPKLMIYEVSKRPSGVSDRFSGSKSGNTASLTISGLQAEDEADYYCSSYAGSNTYIFGSGTRLTVL
# B2: 3S41.3 (protein)
# chain 1: EVQLVESGGGLVQPGGSLRLSCATSGFTFSNYWMYWFRQAPGKGLEWVSTISGSSSNTYYPDSVKGRFTISRDNAKNTLYLQINSLRAEDTAVYYCARRHDHSSGWAFDYWGQGVLVTVSS
# chain 2: EIVMTQSPATLSLSPGERATLSCRASQSVGSNLAWYQQKPGQAPKLLIYDASSRATGIPDRFSGSGSGTDFTLTVSSLEPEDVGVYYCQQYNNWKTFGQGTKVEIK
# What was measured:
# Test in all cases: fluorescence intensity of antibody binding to polysaccharide-coupled beads; higher = stronger binding
# [1] = target: pneumococcal polysaccharide Pn47A
# [2] = target: pneumococcal polysaccharide Pn47F
# [3] = target: pneumococcal polysaccharide Pn48
# [4] = target: pneumococcal polysaccharide Pn5
# [5] = target: pneumococcal polysaccharide Pn6A
# [6] = target: pneumococcal polysaccharide Pn6B
# [7] = target: pneumococcal polysaccharide Pn6C
# [8] = target: pneumococcal polysaccharide Pn6D
# [9] = target: pneumococcal polysaccharide Pn7A
# [10] = target: pneumococcal polysaccharide Pn7B
# [11] = target: pneumococcal polysaccharide Pn7C
# [12] = target: pneumococcal polysaccharide Pn7F
# [13] = target: pneumococcal polysaccharide Pn8
# [14] = target: pneumococcal polysaccharide Pn9A
# [15] = target: pneumococcal polysaccharide Pn9L
# [16] = target: pneumococcal polysaccharide Pn9N
# [17] = target: pneumococcal polysaccharide Pn9V
# [18] = target: pneumococcal polysaccharide C-Poly-1
# [19] = target: pneumococcal polysaccharide C-Poly-2
# [20] = target: pneumococcal polysaccharide Pn1
# [21] = target: pneumococcal polysaccharide Pn10A
# [22] = antibody concentration 2337.65 ng/mL
# [23] = antibody concentration 12500 ng/mL
# [24] = antibody concentration 0.1 ng/mL
# [25] = antibody concentration 0.534724 ng/mL
# [26] = antibody concentration 2.8593 ng/mL
# [27] = antibody concentration 15.2894 ng/mL
# [28] = antibody concentration 81.7561 ng/mL
# [29] = antibody concentration 437.17 ng/mL
binder,measurement,setting,value
B1,fluorescence intensity,[1]; [22],18.5 MFI
same,fluorescence intensity,[1]; [23],51 MFI
same,fluorescence intensity,[2]; [24],11 MFI
same,fluorescence intensity,[2]; [25],11.5 MFI
same,fluorescence intensity,[2]; [26],11 MFI
same,fluorescence intensity,[2]; [27],11.5 MFI
same,fluorescence intensity,[2]; [28],12.5 MFI
same,fluorescence intensity,[2]; [29],12.2 MFI
same,fluorescence intensity,[2]; [22],19.5 MFI
same,fluorescence intensity,[2]; [23],158 MFI
same,fluorescence intensity,[3]; [24],20.5 MFI
same,fluorescence intensity,[3]; [25],19.8 MFI
same,fluorescence intensity,[3]; [26],20 MFI
same,fluorescence intensity,[3]; [27],21 MFI
same,fluorescence intensity,[3]; [28],21.5 MFI
same,fluorescence intensity,[3]; [29],24.8 MFI
same,fluorescence intensity,[3]; [22],29 MFI
same,fluorescence intensity,[3]; [23],86.5 MFI
same,fluorescence intensity,[4]; [24],8.25 MFI
same,fluorescence intensity,[4]; [25],8 MFI
same,fluorescence intensity,[4]; [26],9 MFI
same,fluorescence intensity,[4]; [27],9 MFI
same,fluorescence intensity,[4]; [28],9.5 MFI
same,fluorescence intensity,[4]; [29],11.5 MFI
same,fluorescence intensity,[4]; [22],20.5 MFI
same,fluorescence intensity,[4]; [23],183 MFI
same,fluorescence intensity,[5]; [24],20.5 MFI
same,fluorescence intensity,[5]; [25],19.8 MFI
same,fluorescence intensity,[5]; [26],20.5 MFI
same,fluorescence intensity,[5]; [27],21.8 MFI
same,fluorescence intensity,[5]; [28],20.8 MFI
same,fluorescence intensity,[5]; [29],25.5 MFI
same,fluorescence intensity,[5]; [22],28.8 MFI
same,fluorescence intensity,[5]; [23],57.8 MFI
same,fluorescence intensity,[6]; [24],18.5 MFI
same,fluorescence intensity,[6]; [25],19.2 MFI
same,fluorescence intensity,[6]; [26],17.8 MFI
same,fluorescence intensity,[6]; [27],20 MFI
same,fluorescence intensity,[6]; [28],17 MFI
same,fluorescence intensity,[6]; [29],22 MFI
same,fluorescence intensity,[6]; [22],25.2 MFI
same,fluorescence intensity,[6]; [23],62.5 MFI
same,fluorescence intensity,[7]; [24],22 MFI
same,fluorescence intensity,[7]; [25],54 MFI
same,fluorescence intensity,[7]; [26],53 MFI
same,fluorescence intensity,[7]; [27],77 MFI
same,fluorescence intensity,[7]; [28],66.5 MFI
same,fluorescence intensity,[7]; [29],76 MFI
same,fluorescence intensity,[7]; [22],92.2 MFI
same,fluorescence intensity,[7]; [23],112 MFI
same,fluorescence intensity,[8]; [24],19 MFI
same,fluorescence intensity,[8]; [25],15 MFI
same,fluorescence intensity,[8]; [26],17.5 MFI
same,fluorescence intensity,[8]; [27],15.2 MFI
same,fluorescence intensity,[8]; [28],16 MFI
same,fluorescence intensity,[8]; [29],17.8 MFI
same,fluorescence intensity,[8]; [22],23.8 MFI
same,fluorescence intensity,[8]; [23],37.5 MFI
same,fluorescence intensity,[9]; [24],21.5 MFI
same,fluorescence intensity,[9]; [25],18.5 MFI
same,fluorescence intensity,[9]; [26],19 MFI
same,fluorescence intensity,[9]; [27],19.8 MFI
same,fluorescence intensity,[9]; [28],20.2 MFI
same,fluorescence intensity,[9]; [29],23 MFI
same,fluorescence intensity,[9]; [22],93 MFI
same,fluorescence intensity,[9]; [23],694 MFI
same,fluorescence intensity,[10]; [24],17 MFI
same,fluorescence intensity,[10]; [25],16 MFI
same,fluorescence intensity,[10]; [26],14 MFI
same,fluorescence intensity,[10]; [27],15.5 MFI
same,fluorescence intensity,[10]; [28],15.5 MFI
same,fluorescence intensity,[10]; [29],16.5 MFI
same,fluorescence intensity,[10]; [22],28.5 MFI
same,fluorescence intensity,[10]; [23],96 MFI
same,fluorescence intensity,[11]; [24],17 MFI
same,fluorescence intensity,[11]; [25],15 MFI
same,fluorescence intensity,[11]; [26],15.5 MFI
same,fluorescence intensity,[11]; [27],17 MFI
same,fluorescence intensity,[11]; [28],16.2 MFI
same,fluorescence intensity,[11]; [29],16 MFI
same,fluorescence intensity,[11]; [22],25.8 MFI
same,fluorescence intensity,[11]; [23],93.8 MFI
same,fluorescence intensity,[12]; [24],14 MFI
same,fluorescence intensity,[12]; [25],14 MFI
same,fluorescence intensity,[12]; [26],14.5 MFI
same,fluorescence intensity,[12]; [27],14 MFI
same,fluorescence intensity,[12]; [28],16 MFI
same,fluorescence intensity,[12]; [29],20.5 MFI
same,fluorescence intensity,[12]; [22],43.8 MFI
same,fluorescence intensity,[12]; [23],402 MFI
same,fluorescence intensity,[13]; [24],20 MFI
same,fluorescence intensity,[13]; [25],19.5 MFI
same,fluorescence intensity,[13]; [26],20.5 MFI
same,fluorescence intensity,[13]; [27],21 MFI
same,fluorescence intensity,[13]; [28],21.5 MFI
same,fluorescence intensity,[13]; [29],26.8 MFI
same,fluorescence intensity,[13]; [22],31.8 MFI
same,fluorescence intensity,[13]; [23],77 MFI
same,fluorescence intensity,[14]; [24],19 MFI
same,fluorescence intensity,[14]; [25],18.5 MFI
same,fluorescence intensity,[14]; [26],18 MFI
same,fluorescence intensity,[14]; [27],20.5 MFI
same,fluorescence intensity,[14]; [28],19 MFI
same,fluorescence intensity,[14]; [29],20 MFI
same,fluorescence intensity,[14]; [22],33.8 MFI
same,fluorescence intensity,[14]; [23],97.8 MFI
same,fluorescence intensity,[15]; [24],17.5 MFI
same,fluorescence intensity,[15]; [25],16.2 MFI
same,fluorescence intensity,[15]; [26],15 MFI
same,fluorescence intensity,[15]; [27],17.5 MFI
same,fluorescence intensity,[15]; [28],17 MFI
same,fluorescence intensity,[15]; [29],18.8 MFI
same,fluorescence intensity,[15]; [22],25 MFI
same,fluorescence intensity,[15]; [23],73.5 MFI
same,fluorescence intensity,[16]; [24],17.5 MFI
same,fluorescence intensity,[16]; [25],14.8 MFI
same,fluorescence intensity,[16]; [26],15 MFI
same,fluorescence intensity,[16]; [27],15.2 MFI
same,fluorescence intensity,[16]; [28],14.5 MFI
same,fluorescence intensity,[16]; [29],17 MFI
same,fluorescence intensity,[16]; [22],28.5 MFI
same,fluorescence intensity,[16]; [23],80 MFI
same,fluorescence intensity,[17]; [24],14.8 MFI
same,fluorescence intensity,[17]; [25],14 MFI
same,fluorescence intensity,[17]; [26],13.2 MFI
same,fluorescence intensity,[17]; [27],14 MFI
same,fluorescence intensity,[17]; [28],15.2 MFI
same,fluorescence intensity,[17]; [29],16 MFI
same,fluorescence intensity,[17]; [22],18 MFI
same,fluorescence intensity,[17]; [23],37 MFI
B2,fluorescence intensity,[18]; [24],24.2 MFI
same,fluorescence intensity,[18]; [25],27 MFI
same,fluorescence intensity,[18]; [26],25 MFI
same,fluorescence intensity,[18]; [27],25.5 MFI
same,fluorescence intensity,[18]; [28],32.5 MFI
same,fluorescence intensity,[18]; [29],116 MFI
same,fluorescence intensity,[18]; [22],1150 MFI
same,fluorescence intensity,[18]; [23],2210 MFI
same,fluorescence intensity,[19]; [24],20.5 MFI
same,fluorescence intensity,[19]; [25],19.5 MFI
same,fluorescence intensity,[19]; [26],19.5 MFI
same,fluorescence intensity,[19]; [27],20.5 MFI
same,fluorescence intensity,[19]; [28],25 MFI
same,fluorescence intensity,[19]; [29],102 MFI
same,fluorescence intensity,[19]; [22],1130 MFI
same,fluorescence intensity,[19]; [23],2030 MFI
same,fluorescence intensity,[20]; [24],12.8 MFI
same,fluorescence intensity,[20]; [25],12.5 MFI
same,fluorescence intensity,[20]; [26],14.5 MFI
same,fluorescence intensity,[20]; [27],14.5 MFI
same,fluorescence intensity,[20]; [28],15.5 MFI
same,fluorescence intensity,[20]; [29],25.5 MFI
same,fluorescence intensity,[20]; [22],121 MFI
same,fluorescence intensity,[20]; [23],388 MFI
same,fluorescence intensity,[21]; [24],25 MFI
same,fluorescence intensity,[21]; [25],26 MFI
same,fluorescence intensity,[21]; [26],24.5 MFI
same,fluorescence intensity,[21]; [27],25 MFI
same,fluorescence intensity,[21]; [28],26 MFI
same,fluorescence intensity,[21]; [29],37.2 MFI

# An excerpt of these results, as tab-separated lines.
binder	measurement	setting	value
B1	fluorescence intensity	[3]; [25]	19.8 MFI
same	fluorescence intensity	[3]; [26]	20 MFI

# Quoted at random: 7 entries already listed, in no set order.
binder,measurement,setting,value
B2,fluorescence intensity,[21]; [28],26 MFI
B1,fluorescence intensity,[6]; [23],62.5 MFI
B2,fluorescence intensity,[19]; [28],25 MFI
same,fluorescence intensity,[18]; [29],116 MFI
B1,fluorescence intensity,[14]; [22],33.8 MFI
same,fluorescence intensity,[4]; [22],20.5 MFI
same,fluorescence intensity,[17]; [28],15.2 MFI
